No constants are given. Whether binding was seen depends on the method and setting. Binding seen in cells or lysates may run through a third protein. Some binding calls cover weakened binding; strength is not graded here. Where a sequence is shown, tags or fusion partners need not be part of it.
Legend:
Test in all cases: pull-down; FLAG-Stx11 from lysates of transfected HEK-293T cells loaded on protein G-beads with anti-FLAG mAb (2 h, 4°C), washed, then incubated with lysates of HA-Munc18-2 transfected HEK-293T cells for 4 h at 4°C; lysis buffer 20 mM Tris pH 7.4, 2 mM EDTA, 1% Triton-X-100, 10% glycerol, 100 mM NaCl; Western blot; only the target purified
[1] = biological target: T1, FLAG-tagged syntaxin-11 wild-type (human) (UniProt O75558)
T1 sequence: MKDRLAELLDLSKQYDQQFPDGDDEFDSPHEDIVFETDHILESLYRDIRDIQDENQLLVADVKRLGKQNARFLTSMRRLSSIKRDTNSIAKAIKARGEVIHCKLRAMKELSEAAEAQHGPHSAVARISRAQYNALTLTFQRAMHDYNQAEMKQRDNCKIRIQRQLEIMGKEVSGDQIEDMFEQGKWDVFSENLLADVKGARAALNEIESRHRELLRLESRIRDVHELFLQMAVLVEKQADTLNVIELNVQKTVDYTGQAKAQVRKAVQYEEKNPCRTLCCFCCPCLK

[2] = biological target: T2, FLAG-tagged syntaxin-11 L58P (human) (UniProt O75558)
T2 sequence: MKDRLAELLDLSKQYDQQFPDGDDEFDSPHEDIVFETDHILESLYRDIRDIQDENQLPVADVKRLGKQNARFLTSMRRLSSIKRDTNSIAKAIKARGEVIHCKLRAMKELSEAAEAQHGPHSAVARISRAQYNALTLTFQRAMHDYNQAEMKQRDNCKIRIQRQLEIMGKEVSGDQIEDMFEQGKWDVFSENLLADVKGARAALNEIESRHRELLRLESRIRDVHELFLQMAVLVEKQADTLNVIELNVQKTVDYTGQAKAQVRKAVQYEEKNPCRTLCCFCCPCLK

[3] = biological target: T3, FLAG-tagged syntaxin-11 R4A (human) (UniProt O75558)
T3 sequence: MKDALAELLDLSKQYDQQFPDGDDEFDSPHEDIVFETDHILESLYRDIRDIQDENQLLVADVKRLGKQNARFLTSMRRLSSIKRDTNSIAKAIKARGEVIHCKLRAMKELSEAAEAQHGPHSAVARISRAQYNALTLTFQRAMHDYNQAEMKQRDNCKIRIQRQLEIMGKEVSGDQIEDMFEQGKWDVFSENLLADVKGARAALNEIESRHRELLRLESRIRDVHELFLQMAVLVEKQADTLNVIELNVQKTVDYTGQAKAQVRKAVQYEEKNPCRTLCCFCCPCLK

[4] = biological target: T4, FLAG-tagged syntaxin-11 Q268X (human) (UniProt O75558)
T4 sequence: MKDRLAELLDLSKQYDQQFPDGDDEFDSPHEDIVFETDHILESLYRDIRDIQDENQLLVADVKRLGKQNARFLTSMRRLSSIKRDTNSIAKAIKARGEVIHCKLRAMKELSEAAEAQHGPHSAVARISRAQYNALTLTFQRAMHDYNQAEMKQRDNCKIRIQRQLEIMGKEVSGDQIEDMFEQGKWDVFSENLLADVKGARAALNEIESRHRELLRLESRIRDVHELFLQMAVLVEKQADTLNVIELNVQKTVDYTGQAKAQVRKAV

binding [1]: binds
binding [2]: no binding
binding [3]: no binding
binding [4]: binds
B1: HA-tagged Munc18-2 wild-type (protein, UniProt Q15833 1-593)
chain: MAPSGLKAVVGEKILSGVIRSVKKDGEWKVLIMDHPSMRILSSCCKMSDILAEGITIVEDINKRREPIPSLEAIYLLSPTEKSVQALIKDFQGTPTFTYKAAHIFFTDTCPEPLFSELGRSRLAKVVKTLKEIHLAFLPYEAQVFSLDAPHSTYNLYCPFRAEERTRQLEVLAQQIATLCATLQEYPAIRYRKGPEDTAQLAHAVLAKLNAFKADTPSLGEGPEKTRSQLLIMDRAADPVSPLLHELTFQAMAYDLLDIEQDTYRYETTGLSEAREKAVLLDEDDDLWVELRHMHIADVSKKVTELLRTFCESKRLTTDKANIKDLSQILKKMPQYQKELNKYSTHLHLADDCMKHFKGSVEKLCSVEQDLAMGSDAEGEKIKDSMKLIVPVLLDAAVPAYDKIRVLLLYILLRNGVSEENLAKLIQHANVQAHSSLIRNLEQLGGTVTNPGGSGTSSRLEPRERMEPTYQLSRWTPVIKDVMEDAVEDRLDRNLWPFVSDPAPTASSQAAVSARFGHWHKNKAGIEARAGPRLIVYVMGGVAMSEMRAAYEVTRATEGKWEVLIGSSHILTPTRFLDDLKALDKKLEDIALP

Source: paper PMC3890652
